Results from patent US20190041390A1.
Results are given in words; binding and its absence hold for the method and conditions named. Some results given as binding are weak or reduced against the parent protein; the word gives no strength.

Target: synthetic rVλ6Wil fibrils (human)
Test: solution-phase pulldown, 125I-labelled protein, 1 h, 3 h, 24 h

B1: rVλ6Wil monomer (recombinant λ6 light chain variable domain from patient Wil) (protein)
VL: NFLLTQPHSVSESPGKTVTISCTRSSGSIANNYVHWYQQRPGSSPTTVIFEDDHRPSGVPDRFSGSVDTSSNSASLTISGLKTEDEADYYCQSYDHNNQVFGGGTKLTVLG
**Q.** For B1, which binding is on record?
**A.** The binding was “binds”.
